# Source: patent US11643431B2, “Uses of hyaluronan conjugate” (priority 2020, dated 2023)
# At least one compound was matched to its structure with a doubt left.
# What was measured:
# [1] = system: LPS-induced acute lung injury (ALI); assay: LPS-induced acute lung injury mice: lung wet/dry ratio and BALF total protein; type: in vivo, BALB/cByJNarl mice; settings: vs LPS group, p<0.05
# [2] = system: TNF-α, IL-1β, and IL-6 in BALFs; assay: LPS-induced acute lung injury mice: cytokines in BALFs (ELISA); type: in vivo, BALB/cByJNarl mice; settings: 2 mg/kg oral before and after LPS; vs LPS group
smiles,measurement,setting,value
C[C@H]1C[C@@H]2[C@H]([C@@H](O)C[C@@]3(C)[C@H]2CC[C@]3(O)C(=O)CO)[C@@]2(C)C=CC(=O)C=C12 [methylprednisolone],total protein concentration in BALFs,[1]; 2 mg/kg oral before and after LPS,reduces the total protein concentration to an extent that is statistically significant
same,lung wet/dry ratio (pulmonary edema),[1]; 2 mg/kg oral one hour before and one hour after LPS,effectively reduce the extent of pulmonary edema
same,level of IL-1β in BALFs,[2],reduce the expression level of these cytokines in BALFs
same,level of IL-6 in BALFs,[2],reduce the expression level of these cytokines in BALFs
same,level of TNF-α in BALFs,[2],reduce the expression level of these cytokines in BALFs
